Measured values: PubChem BioAssay AID540256 (National Center for Advancing Translational Sciences (NCATS), 2011)
Among all 300,000 compounds or so, about 3,700 (1.2%) were called active. The inconclusive results got no clear call from the source; some entries with a clear call stand among them for comparison. Calls follow the shape of the full dose curve; tested in HEK293 cells. Where the call is inconclusive, the potency comes from a doubtful curve fit.
% is scaled to controls: 0 for no effect and ±100 for the full control effect; potency is read from the fitted curve at half-maximal effect.

Experiment: qHTS for Inhibitors of binding or entry into cells for Lassa Virus; also: nearly all actives have a fitted effect of over 50% in size
Conditions: Lassa virus pseudotype entry inhibition, cell reporter; activity change, negative = inhibition: at 37.9 µM (top of the series) unless noted
In the case of O=C(Nc1ccc(C2CC2(Cl)Cl)cc1)c1ccccc1Br (stereo not drawn), the Potency was inconclusive: 2.59 µM [activator, full curve, poor fit].
With CCOC(=O)C1=C(Cc2ccc(OC)cc2)C(=O)c2ccccc2C1=O the Potency was inconclusive: 16.4 µM [inhibitor, partial curve, poor fit].
In the case of CN(Cc1ccc(Cl)cc1)C(=O)CNC(=O)C12CC3CC(CC(C3)C1)C2, the Potency was inconclusive: 5.01 µM [inhibitor, single point].
For O=C(COC(=O)CCSc1ccc(Cl)cc1)NCc1ccco1, the “activity change, negative = inhibition” value was inactive: 28.5%.
In the case of Cc1ccc2nc(-c3ccc(NS(=O)(=O)c4ccc(F)cc4)cc3)sc2c1, the Potency was inconclusive: 0.82 µM [activator, full curve, poor fit].
For CC(c1nccs1)N(C)C(=O)c1ccc(OC2CCN(CCc3ccccc3)CC2)cc1 (stereo not drawn), the “activity change, negative = inhibition” value was inactive: 7.5%.
For CC(=O)Nc1cc(C(=O)OCC(=O)c2ccccc2)ccc1C, the Potency was inconclusive: 29.1 µM [inhibitor, single point].
For N#CC[n+]1cc(-c2ccc(Cl)cc2)n2c1CCC2, the “activity change, negative = inhibition” value was inactive: -6.12%.
For O=C(Nc1cccc(Cl)c1)c1cnc[nH]1, the Potency was inconclusive: 2.51 µM [activator, full curve, poor fit].
In the case of Cc1ccnc(SC2CC(=O)N(c3ccc(F)cc3)C2=O)n1 (stereo not drawn), the “activity change, negative = inhibition” value was inactive: 14.9%.
For Cn1c(CN2CCN(C(=O)c3ccccc3)CC2)nc2cc([N+](=O)[O-])ccc21, the Potency was inconclusive: 18.4 µM [activator, partial curve, poor fit].
For Cc1ccc(S(=O)(=O)N2CCOCC2)cc1NC(=O)COC(=O)CCn1c(C)csc1=O, the Potency was inconclusive: 0.631 µM [inhibitor, full curve, poor fit].
In the case of O=C(Nc1ccccc1)c1ccc(Br)c(S(=O)(=O)N2CCCCC2)c1, the Potency was inconclusive: 35.5 µM [inhibitor, single point].
In the case of S=C(c1ccc(N2CCCC2)cc1)N1CCCCC1, the Potency was inconclusive: 1.12 µM [activator, partial curve].
With COc1ccc(C(=O)N/N=C/c2ccc3cccc(OCc4ccccc4)c3n2)cc1 the Potency was inconclusive: 29.1 µM [inhibitor, single point].
In the case of Cc1cc(N/N=C/c2ccco2)c2ccccc2n1, the “activity change, negative = inhibition” value was inactive: 5.05%.
In the case of COc1ccc(-c2ccc(C#N)c(SCC(=O)Nc3sc4c(c3C#N)CCC4)n2)cc1OC, the Potency was active: 14.6 µM.
With CS(=O)(=O)N(CC(=O)N1CCC(C(N)=O)CC1)c1ccc(Oc2ccccc2)cc1 the Potency was inconclusive: 0.794 µM [activator, full curve, poor fit].
In the case of CCOC(=O)CN1C(=O)/C(=C/c2c(F)cccc2Cl)Oc2ccccc21, the Potency was inconclusive: 11.2 µM [inhibitor, partial curve, poor fit].
In the case of COc1ccc(CCNC(=O)c2ccc(S(=O)(=O)N(C)c3ccccc3)cc2)cc1OC, the Potency was inconclusive: 12.6 µM [inhibitor, single point].
For CN(CC(=O)NCc1cccnc1)S(=O)(=O)c1ccc(F)cc1, the “activity change, negative = inhibition” value was inactive: 17.4% [at 46.1 µM].
With COc1ccc(OC)c(NC(=O)CSc2nc3ccccc3nc2N2CCCCC2)c1 the Potency was inconclusive: 3.98 µM [inhibitor, partial curve, poor fit].
With CN1CCN(c2ccc(C(F)(F)F)cc2N)CC1 the “activity change, negative = inhibition” value was inactive: 8.65%.
With O=C(CSc1nnc(-c2ccc(F)cc2)o1)Nc1ccc(S(=O)(=O)N2CCCCCC2)cc1 the Potency was inconclusive: 18.3 µM [inhibitor, partial curve, poor fit].
In the case of COc1ccccc1-c1nnc(NC(=O)c2ccc(S(=O)(=O)N(C)CC3CCCO3)cc2)o1 (stereo not drawn), the Potency was inconclusive: 14.1 µM [inhibitor, single point].
With O=C(OCC1CCCO1)c1ccc2c(c1)N(Cc1ccccc1Cl)C(=O)c1ccccc1S2(=O)=O (stereo not drawn) the “activity change, negative = inhibition” value was inactive: 5.52% [at 46.1 µM].
For Fc1ccc(-c2csc3ncnc(N4CCN(Cc5ccccc5)CC4)c23)cc1, the “activity change, negative = inhibition” value was inactive: -0.866%.
For COc1ccccc1NC(=O)C(Cc1ccccc1)NS(=O)(=O)c1ccc2c(c1)c(=O)n(C)c(=O)n2C (stereo not drawn), the Potency was inconclusive: 22.4 µM [activator, single point].
With Cc1cc(C)c(NC(=S)NCC2CCN(C(C)c3ccccc3)C2)c(C)c1 (stereo not drawn) the “activity change, negative = inhibition” value was inactive: -1.8% [at 46.1 µM].
In the case of C=CCSC1=NN2CCS(=O)(=O)N=C2S1, the “activity change, negative = inhibition” value was inactive: -9.81% [at 46.1 µM].
For CNC(=O)c1ccsc1NC(=O)C1CCN(S(=O)(=O)c2ccc(Cl)s2)CC1, the Potency was inconclusive: 35.5 µM [inhibitor, single point].
In the case of COc1cccc(C2=CC(c3cccc(OC)c3OC)n3nnnc3N2)c1 (stereo not drawn), the Potency was inconclusive: 2.82 µM [inhibitor, full curve].
For CC12CCC(=O)N1C(C(=O)NCCN1C(=O)S/C(=C\c3ccccc3F)C1=O)CS2 (stereo not drawn), the Potency was inconclusive: 1.58 µM [inhibitor, partial curve, poor fit].
For Cn1c(=O)c2c(nc(N3CCCCC3)n2CCSc2nc3ccccc3s2)n(C)c1=O, the Potency was inconclusive: 6.51 µM [inhibitor, partial curve].
In the case of O=C(CSc1nc2cc(Cl)ccc2s1)Nc1cccc(S(=O)(=O)N2CCOCC2)c1, the Potency was inconclusive: 18.4 µM [inhibitor, partial curve, poor fit].
For ONC(=Nc1ccccc1)C(=Nc1ccccc1)NO, the Potency was inconclusive: 1.26 µM [inhibitor, single point].
In the case of O=C(/C=C/c1cn(CC(O)CN2CCCCC2)c2ccccc12)c1cccs1 (stereo not drawn), the Potency was inconclusive: 29.1 µM [inhibitor, single point].
For Cc1sc2nc(CSC(C)C(=O)N(C)CC(=O)Nc3ccccc3C(F)(F)F)[nH]c(=O)c2c1C (stereo not drawn), the Potency was inconclusive: 35.5 µM [inhibitor, single point].
With CCOC(=O)c1c(-c2cccs2)csc1NC(=O)CN(CC)CC the Potency was inconclusive: 25.9 µM [inhibitor, single point].
In the case of COC(=O)c1cc2sccc2n1Cc1nc(-c2ccc(Cl)cc2)oc1C, the “activity change, negative = inhibition” value was inactive: 1.02%.
For CCC(O)CC(C(=O)NNc1ccccc1)C(=O)NNc1ccccc1 (stereo not drawn), the Potency was inconclusive: 14.1 µM [inhibitor, partial curve, poor fit].
For CC(=O)Oc1c(/C=C(\C#N)C(N)=O)[nH]c2ccccc12, the Potency was active: 16.4 µM.
In the case of O=S(=O)(Nc1nc2c(s1)CCCC2)c1ccc(F)cc1, the “activity change, negative = inhibition” value was inactive: 24.1%.
For O=C(CSc1nccn1Cc1ccc(Cl)cc1)Nc1ccc2c(c1)OCCO2, the “activity change, negative = inhibition” value was inactive: -11% [at 46.1 µM].
With COCCN1CCN(c2c(C)c(C)nc3cc(-c4cccc(OC)c4)nn23)CC1 the Potency was inconclusive: 35.5 µM [activator, single point].
In the case of COc1cccc(C(=O)/C=C2\Sc3ccccc3N2C)c1, the Potency was inconclusive: 7.08 µM [inhibitor, partial curve, poor fit].
In the case of Cc1cc(C)nc(N/N=C/C(Cl)=C/c2ccccc2)n1, the Potency was inconclusive: 1.3 µM [activator, full curve, poor fit].
For O=C(Nc1ccc(-c2nc3cc(Cl)ccc3o2)cc1)C1CCCO1 (stereo not drawn), the Potency was inconclusive: 16.4 µM [inhibitor, single point].
In the case of Cc1noc(C)c1CSc1nc2ccccc2c(=O)n1-c1ccccc1, the Potency was inconclusive: 1.12 µM [inhibitor, full curve].
For CCS(=O)(=O)c1cc([N+](=O)[O-])c(Sc2ccccc2NC(C)=O)s1, the Potency was inconclusive: 2.82 µM [activator, partial curve, poor fit].
For O=C(NC(C(=O)N/N=C/c1cccc2ccccc12)c1n[nH]c(=O)c2ccccc12)c1ccccc1 (stereo not drawn), the Potency was inconclusive: 35.5 µM [inhibitor, single point].
In the case of C=CCOc1ccc(C(=O)Nc2ccccc2C(=O)NCc2cccnc2)cc1, the Potency was inconclusive: 1.12 µM [inhibitor, partial curve, poor fit].
With Cc1ccc(S(=O)(=O)N2CCOC2CNC(=O)C(=O)NCCCc2ccccc2)cc1 (stereo not drawn) the “activity change, negative = inhibition” value was inactive: -29.6%.
For O=C(CSc1nnc(NC(=O)c2ccc(F)cc2)s1)NCc1ccco1, the Potency was inconclusive: 35.5 µM [inhibitor, single point].
For Cn1c(=O)c2c(nc(NCc3ccc4c(c3)OCO4)n2Cc2ccccc2)n(C)c1=O, the Potency was inconclusive: 22.4 µM [inhibitor, partial curve, poor fit].
In the case of COc1cc(/C=N/NC(=O)CN(Cc2ccccc2)S(=O)(=O)c2ccc3c(c2)OCCO3)ccc1O, the Potency was inconclusive: 22.4 µM [inhibitor, single point].
With O=C(Cc1csc(NC(=O)Nc2cccc(Cl)c2)n1)NCc1cccnc1 the “activity change, negative = inhibition” value was inactive: 0.455%.
In the case of Oc1ccccc1CN1CCC(C(O)(c2ccccc2)c2ccccc2)CC1, the Potency was inconclusive: 18.4 µM [inhibitor, single point].
With C/C(=N/NC(=O)CSc1nc2ccccc2n1C)c1ccc(O)cc1 the Potency was inconclusive: 0.562 µM [inhibitor, full curve, poor fit].
For COc1ccccc1N1CCN(S(=O)(=O)c2ccc(NC(C)=O)cc2)CC1, the “activity change, negative = inhibition” value was inactive: 13.7% [at 46.1 µM].
In the case of O=C(Nc1ccc(Br)cc1F)c1ncoc1-c1ccco1, the “activity change, negative = inhibition” value was inactive: 4.31% [at 46.1 µM].
For Cc1ccc(N(CCCCN2C(=O)c3ccccc3C2=O)C(=O)c2cccs2)cc1, the Potency was inconclusive: 22.4 µM [inhibitor, partial curve].
With CCN(CC)CCN(Cc1cc2ccc(C)cc2[nH]c1=O)C(=O)Nc1ccc(Cl)cc1 the “activity change, negative = inhibition” value was inactive: 27.7% [at 46.1 µM].
With CCc1ccc2oc(C(=O)Nc3nonc3CC)c(C)c2c1 the “activity change, negative = inhibition” value was inactive: 10.6% [at 46.1 µM].
For CC(=O)c1sc(NC(=O)c2cc(-c3ccccc3)nn2-c2ccccc2)nc1C, the Potency was inconclusive: 12.6 µM [inhibitor, partial curve, poor fit].
For CC1CCC(NS(=O)(=O)c2ccc(Cl)nc2)CC1 (stereo not drawn), the “activity change, negative = inhibition” value was inactive: 2.66%.
For CC(=O)c1nnn(-c2cccc([N+](=O)[O-])c2)c1C, the “activity change, negative = inhibition” value was inactive: 3.08%.
For O=C(c1ccncc1)N(c1ccc2oc3c(c2c1)CCCC3)S(=O)(=O)c1cccc([N+](=O)[O-])c1, the Potency was inconclusive: 0.146 µM [inhibitor, full curve, poor fit].
